Experimental data taken from patent US20260092057A1, “BCL-XL/BCL-2 DEGRADERS AND USES THEREOF” (Kymera Therapeutics, Inc., priority 2022, published 2026).
The structures given here were assigned with low confidence; some may be wrong.

The chains behind the UniProt entries cited, without tags or fusion partners.
UniProt Q07817, whole entry: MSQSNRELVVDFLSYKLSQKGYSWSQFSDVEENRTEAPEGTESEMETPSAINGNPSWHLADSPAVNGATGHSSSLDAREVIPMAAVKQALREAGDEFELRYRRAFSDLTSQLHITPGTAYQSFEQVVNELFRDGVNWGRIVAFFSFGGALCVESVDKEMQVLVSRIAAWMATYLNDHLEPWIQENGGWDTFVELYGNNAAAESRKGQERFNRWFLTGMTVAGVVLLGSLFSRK

Columns and labels:
[1] = biological target: BCL-XL (Homo sapiens, UniProt Q07817); assay: BCL-XL degradation assay in MOLT-4 cells (ELISA, 6 h)
[2] = tested on: MOLT-4 cells; assay: CTG (CellTiter-Glo) cell viability assay, MOLT-4; conditions: read-out: CTG Cell Viability Assay - MOLT-4 3 day: Average external-IC50
Experimental: (§1) Compound-mediated viability effect on MOLT-4 and Caki-2 was quantitatively determined using the CellTiter-Glo® Luminescent Cell Viability Assay kit from Promega (Catalog number G7570) following manufacturer's recommended procedures. Briefly, MOLT-4 and Caki-2 cells were seeded into 384 well plates (Grenier Bio-One, Catalog number 781080) with a density of 10,000 cells per well. Compounds were then added to the assay plate with final top concentration of 10 µM and 1:3 dilution series with total of 9 doses. The final DMSO concentration is normalized to 0.2%. The assay plates were incubated at 37° C. for 3 days under 5% CO2. Then the assay plate was equilibrated at room temperature for 10 minutes. To determine cell viability, 30 uL CellTiter Glo reagent was added to each well and the assay plate was centrifuged at 1000 rpm for 30 second, incubated at room temperature for 10 min, and analyzed by detecting the luminescence using a multimode plate reader (EnVision 2105, PerkinElmer). The data was then analyzed by software Prism 7.0 from GraphPad and the dose response curves are fit using a three-parameter logistic equation to calculate IC50.
(§2) The letter codes for MOLT-4 IC50 include: A (<0.1 μM); B (0.1-1.0 μM); C (>1.0-3.0 μM); and D (>3.0 μM). The letter codes for Caki-2 IC50 include: A (<5 μM); B (5-10 μM); C (>10-30.0 μM); and D (>30.0 μM).

[3] = tested on: Caki-2 cells; assay: CTG (CellTiter-Glo) cell viability assay, Caki-2; conditions: read-out: CTG Chempartner/PHA- Caki-2 3-day: Average external-IC50
Experimental: as §1, §2

Cc1ncsc1-c1ccc([C@H](C)NC(=O)[C@@H]2C[C@@H](O)CN2C(=O)[C@@H](NC(=O)CNCCCNc2ccc(S(=O)(=O)NC(=O)c3ccc(N4CCN(CC5=C(c6ccc(Cl)cc6)CC(C)(C)CC5)CC4)cc3Oc3cnc4[nH]ccc4c3)cc2S(=O)(=O)C(F)(F)F)C(C)(C)C)cc1 [I-115]
Bcl-xL ELISA in MOLT-4 degradation 6 h: Dmax % [1]: A (A (>75%)) | DC50 ([1]; read-out: Bcl-xL ELISA in MOLT-4 degradation 6 h: External Abs-DC50): 0.01 to 0.1 µM | IC50 [2]: 0.1 to 1 µM | IC50 [3]: > 30 µM
